This is an account of results in the supplement of paper PMC12542422.

Structures can show the parent of a compound that is named as a salt. ± gives the standard deviation of the averaged measurements. The list shows a part of the results. These are raw signals, not scaled to a control.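 Ribosome-assembly readouts in HeLa cells were imaged via ENP1 staining, with or without export block, or inducible tagged ribosomal protein reporters. Machine learning classified per-cell signal location versus solvent (DMSO) controls. Hits surpassed the DMSO false-positive mean by five standard deviations and were visually confirmed; three biological replicates.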

The experiment has as its system HeLa K (ENP1 immunofluorescence, +LMB). Put plainly: fraction of cells with nucleolar or nucleolar/nucleoplasmic ENP1 signal (MainHitrate); higher = more cells with nucleolar/nuclear readout signal (for ENP1 -LMB: less RNAPI inhibition; for +LMB ENP1 and RP reporters: stronger nuclear/nucleolar retention, i.e. ribosome biogenesis defect). The conditions noted are these: concentration: 1 µM; treatment time: 6 h; ENP1 +LMB; leptomycin B: 20 nM, last 1.5 h.
`O=C(N/N=C/c1ccc([N+](=O)[O-])o1)c1ccc(O)cc1` [Nifuroxazide] registered a fraction of 0.0616 ± 0.085.

For `N[C@H](C(=O)O)[C@H](O)c1ccc(O)c(O)c1` [Droxidopa (L-DOPS)], the fraction stood at 0.0944 ± 0.13.

In turn, `N=C(N)NC(=N)N1CCOCC1` [Moroxydine] came in with a fraction of 0.0873 ± 0.11.

On to `COc1ccc(C(=O)CC(=O)c2ccc(C(C)(C)C)cc2)cc1` [Avobenzone (Parsol 1789)], for which the fraction is 0.18 ± 0.28.

For the molecule `CC[C@H]1OC(=O)[C@H](C)[C@@H](O[C@H]2C[C@@](C)(OC)[C@@H](O)[C@H](C)O2)[C@H](C)[C@@H](O[C@@H]2O[C@H](C)C[C@H](N(C)C)[C@H]2O)[C@](C)(O)C[C@@H](C)C(=O)[C@H](C)[C@@H](O)[C@]1(C)O` [Erythromycin (E-Mycin)], the fraction stood at 0.124 ± 0.12.

With `C[C@H](CCC(=O)O)[C@H]1CC[C@H]2[C@@H]3CC[C@@H]4C[C@H](O)CC[C@]4(C)[C@H]3CC[C@]12C` [Lithocholic acid], the fraction was determined as 0.0699 ± 0.094.

As to `CC(=O)SCC(Cc1ccccc1)C(=O)NCC(=O)OCc1ccccc1` (stereo not given) [Racecadotril (Acetorphan)], the fraction was found to be 0.0555 ± 0.05.

Molecule `Nc1nc(NC2CC2)c2ncn([C@H]3C=C[C@@H](CO)C3)c2n1` [Abacavir sulfate] came in with a fraction of 0.117 ± 0.17.

With `CC(C)Cc1ccc(C(C)C(=O)O)cc1` (stereo not given) [Ibuprofen Lysine (NeoProfen)], the fraction worked out at 0.0775 ± 0.054.

`Nc1ccn([C@@H]2O[C@H](CO)[C@@H](O)C2(F)F)c(=O)n1` [Gemcitabine HCl (Gemzar)] gave a fraction of 0.0726 ± 0.065.

`COc1ccc2c(c1)c(CC(=O)O)c(C)n2C(=O)c1ccc(Cl)cc1` [Indomethacin (Indocid, Indocin)]: the fraction came to 0.0782 ± 0.077.

On to `CN1CCC[C@@H]1CCO[C@](C)(c1ccccc1)c1ccc(Cl)cc1` [Clemastine Fumarate], for which the fraction is 0.123 ± 0.18.

Molecule `O=c1oc2c(O)c(O)cc3c(=O)oc4c(O)c(O)cc1c4c23` [Ellagic acid] yielded a fraction of 0.107 ± 0.064.

For `CCOC(=O)C1=C(C)NC(C)=C(C(=O)OC)C1c1cccc(Cl)c1Cl` (stereo not given) [Felodipine (Plendil)], the fraction was 0.149 ± 0.22.

`Nc1nnc(-c2cccc(Cl)c2Cl)c(N)n1` [Lamotrigine]: the fraction is 0.107 ± 0.15.

With `O=C1c2c(O)ccc(O)c2C(=O)c2c(NCCNCCO)ccc(NCCNCCO)c21` [Mitoxantrone Hydrochloride], the fraction was found to be 0.0522 ± 0.082.

In turn, `C[C@H]1C[C@H]2[C@@H]3CCC4=CC(=O)C=C[C@]4(C)[C@H]3C(=O)C[C@]2(C)[C@@]1(O)C(=O)CO` [Betapar (Meprednisone)] came in with a fraction of 0.1 ± 0.074.

Regarding `CN1[C@@H]2CC[C@H]1C[C@@H](OC(=O)c1c[nH]c3ccccc13)C2` [Tropisetron], the fraction worked out at 0.134 ± 0.2.

Regarding `COc1ccccc1OCCNCC(O)COc1cccc2[nH]c3ccccc3c12` (stereo not given) [Carvedilol], the fraction worked out at 0.0618 ± 0.078.

As to `C[C@@H](O[C@H]1OCCN(Cc2nn(P(=O)(O)O)c(=O)[nH]2)[C@H]1c1ccc(F)cc1)c1cc(C(F)(F)F)cc(C(F)(F)F)c1` [Fosaprepitant dimeglumine], the fraction was 0.113 ± 0.15.

For `CC(=O)Nc1ncc([N+](=O)[O-])s1` [Nithiamide], the fraction was found to be 0.052 ± 0.064.

In the case of `C=C(NC(=O)C(=C)NC(=O)c1csc(C2=N[C@@H]3c4csc(n4)[C@H]4NC(=O)c5csc(n5)[C@H]([C@](C)(O)[C@@H](C)O)NC(=O)[C@H]5CSC(=N5)/C(=C/C)NC(=O)[C@H]([C@@H](C)O)NC(=O)c5csc(n5)[C@]3(CC2)NC(=O)[C@H](C)NC(=O)C(=C)NC(=O)[C@H](C)NC(=O)[C@H]([C@@H](C)CC)N[C@@H]2C=Cc3c([C@H](C)O)cc(nc3[C@H]2O)C(=O)O[C@@H]4C)n1)C(N)=O` [Thiostrepton], the fraction came to 0.181 ± 0.23.

The molecule `Cc1ccc(NC(=O)c2ccc(CN3CCN(C)CC3)cc2)cc1Nc1nc(-c2cccnc2)cs1` [Masitinib (AB1010)] gave a fraction of 0.08 ± 0.05.

As for `CC(=O)O[C@@]12CO[C@@H]1C[C@H](O)[C@@]1(C)C(=O)[C@H](O)C3=C(C)[C@@H](OC(=O)[C@H](O)[C@@H](NC(=O)OC(C)(C)C)c4ccccc4)C[C@@](O)([C@@H](OC(=O)c4ccccc4)[C@H]21)C3(C)C` [Docetaxel (Taxotere)], the fraction stood at 0.0995 ± 0.068.

`CCCNCC(O)COc1ccccc1C(=O)CCc1ccccc1` (stereo not given) [Propafenone (Rytmonorm)] yielded a fraction of 0.125 ± 0.17.

As to `CCCc1cc(=O)[nH]c(=S)[nH]1` [Propylthiouracil], the fraction is 0.066 ± 0.072.

The molecule `CC(C)NCC(O)c1cc(O)cc(O)c1` (stereo not given) [Metaproterenol Sulfate] yielded a fraction of 0.125 ± 0.16.

Turning to `Nc1nc2[nH]cnc2c(=S)[nH]1` [Thioguanine], the fraction is 0.0861 ± 0.095.

For `CN(C)c1ccc(O)c2c1C[C@H]1C[C@H]3[C@H](N(C)C)C(O)=C(C(N)=O)C(=O)[C@@]3(O)C(O)=C1C2=O` [Minocycline HCl], the fraction came to 0.0611 ± 0.089.

Turning to `Nc1nc2[nH]cc(CCc3ccc(C(=O)N[C@@H](CCC(=O)O)C(=O)O)cc3)c2c(=O)[nH]1` [Pemetrexed], the fraction came out at 0.131 ± 0.06.

`C[C@@H]1C/C=C/C=C/C=C/C=C/[C@H](O[C@@H]2O[C@H](C)[C@@H](O)[C@H](N)[C@@H]2O)C[C@@H]2O[C@](O)(C[C@@H](O)C[C@H]3O[C@@H]3/C=C/C(=O)O1)C[C@H](O)[C@H]2C(=O)O` [Natamycin (Pimaricin)] showed a fraction of 0.0999 ± 0.093.

The molecule `C=CCc1cc(OC)c(O)c(C(=O)NCCO)c1` [Alibendol] showed a fraction of 0.117 ± 0.17.

Regarding `CCCN1CCCC[C@H]1C(=O)Nc1c(C)cccc1C` [Ropivacaine HCl], the fraction stood at 0.0453 ± 0.052.

As to `COc1ccc(CC2c3cc(OC)c(OC)cc3CC[N+]2(C)CCC(=O)OCCCCCOC(=O)CC[N+]2(C)CCc3cc(OC)c(OC)cc3C2Cc2ccc(OC)c(OC)c2)cc1OC` (stereo not given) [Atracurium besylate], the fraction amounted to 0.0879 ± 0.11.

On to `CCOC(=O)[C@H](CCc1ccccc1)N[C@H]1CS[C@H](c2cccs2)CN(CC(=O)O)C1=O` [Temocapril HCl], for which the fraction turned out to be 0.0682 ± 0.085.

For the molecule `CC(C)NC[C@H](O)COc1ccc(CCOCC2CC2)cc1` [Levobetaxolol HCl], the fraction is 0.0422 ± 0.056.

Molecule `C[C@H](N)[C@H](O)c1cccc(O)c1` [Metaraminol Bitartrate] showed a fraction of 0.0852 ± 0.11.

`Cn1c(=O)c2[nH]cnc2n(C)c1=O` [Aminophylline (Truphylline)] showed a fraction of 0.0597 ± 0.053.

`N#CC[C@H](C1CCCC1)n1cc(-c2ncnc3[nH]ccc23)cn1` yielded a fraction of 0.114 ± 0.13.

In turn, `NCCc1c[nH]cn1` [Histamine Phosphate] displayed a fraction of 0.0591 ± 0.078.
